Values from PubChem BioAssay AID1508597 (Cure First, 2020)

Screen: 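Knock-downs altering ovarian cancer cell survival with or without PARP inhibitor rucaparib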 (primary screen)
Cell system: human ovarian carcinoma lines grown from tumours: OCI-P5x (papillary serous) and OCI-C5x (clear cell)
Reagent: siRNA pool against human genes, 1.25 pmol siRNA per well
Time to read-out: 72 h or 96 h, depending on the cell culture
Conditions: rucaparib 20 µM (about IC30) or vehicle, present until read-out
Measured: 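ATP luminescence measured at 72 or 96 h according to the culture, then normalised and expressed as percent viability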
Scale: viability, normalised: higher = more viable cells remaining
Rule for the call: 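Active when normalised viability falls below 80 percent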
Calls: active = viability under 80%; inactive = viability 80% or more
Here is an unselected part of about 2,100 reagents tested. 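Calls flag viability under 80% in either arm, not effects specific to rucaparib; the reference for percent is not stated.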 Some reagents were tested in more than one well and are listed for each. Reagent sequences are not shown. Not given: the 100% reference.

viability, normalised (%)	Call	gene	rucaparib or vehicle	cell line	technical replicate
42	active	DEK	Rucaparib	OCI-C5x (clear cell)	1
31.6	active	DEK	Rucaparib	OCI-C5x (clear cell)	2
28.4	active	DEK	Rucaparib	OCI-C5x (clear cell)	3
52.9	active	DEK	Rucaparib	OCI-P5x (serous)	1
57.2	active	DEK	Rucaparib	OCI-P5x (serous)	2
44.8	active	DEK	Rucaparib	OCI-P5x (serous)	3
27.7	active	DEK	Vehicle	OCI-C5x (clear cell)	1
35.2	active	DEK	Vehicle	OCI-C5x (clear cell)	2
20.2	active	DEK	Vehicle	OCI-C5x (clear cell)	3
41.6	active	DEK	Vehicle	OCI-P5x (serous)	1
49.7	active	DEK	Vehicle	OCI-P5x (serous)	2
43.8	active	DEK	Vehicle	OCI-P5x (serous)	3
53.3	active	FGR	Rucaparib	OCI-C5x (clear cell)	1
45.9	active	FGR	Rucaparib	OCI-C5x (clear cell)	2
47.1	active	FGR	Rucaparib	OCI-C5x (clear cell)	3
75.5	active	FGR	Rucaparib	OCI-P5x (serous)	1
64.7	active	FGR	Rucaparib	OCI-P5x (serous)	2
64.4	active	FGR	Rucaparib	OCI-P5x (serous)	3
51.7	active	FGR	Vehicle	OCI-C5x (clear cell)	1
53.6	active	FGR	Vehicle	OCI-C5x (clear cell)	2
54.8	active	FGR	Vehicle	OCI-C5x (clear cell)	3
64	active	FGR	Vehicle	OCI-P5x (serous)	1
76.8	active	FGR	Vehicle	OCI-P5x (serous)	2
57.7	active	FGR	Vehicle	OCI-P5x (serous)	3
38.5	active	HAUS7	Rucaparib	OCI-C5x (clear cell)	1
38.1	active	HAUS7	Rucaparib	OCI-C5x (clear cell)	2
41.7	active	HAUS7	Rucaparib	OCI-C5x (clear cell)	3
81.6	inactive	HAUS7	Rucaparib	OCI-P5x (serous)	1
82.2	inactive	HAUS7	Rucaparib	OCI-P5x (serous)	2
90.7	inactive	HAUS7	Rucaparib	OCI-P5x (serous)	3
50.7	active	HAUS7	Vehicle	OCI-C5x (clear cell)	1
48.9	active	HAUS7	Vehicle	OCI-C5x (clear cell)	2
54.8	active	HAUS7	Vehicle	OCI-C5x (clear cell)	3
94.3	inactive	HAUS7	Vehicle	OCI-P5x (serous)	1
75	active	HAUS7	Vehicle	OCI-P5x (serous)	2
90	inactive	HAUS7	Vehicle	OCI-P5x (serous)	3

The list goes on; the last 2 above are carried over.
viability, normalised (%)	Call	gene	rucaparib or vehicle	cell line	technical replicate
75	active	HAUS7	Vehicle	OCI-P5x (serous)	2
90	inactive	HAUS7	Vehicle	OCI-P5x (serous)	3
72	active	TLK1	Rucaparib	OCI-C5x (clear cell)	1
78.3	active	TLK1	Rucaparib	OCI-C5x (clear cell)	1
67.7	active	TLK1	Rucaparib	OCI-C5x (clear cell)	2
51.9	active	TLK1	Rucaparib	OCI-C5x (clear cell)	2
54.9	active	TLK1	Rucaparib	OCI-C5x (clear cell)	3
69.3	active	TLK1	Rucaparib	OCI-C5x (clear cell)	3
102	inactive	TLK1	Rucaparib	OCI-P5x (serous)	1
85.5	inactive	TLK1	Rucaparib	OCI-P5x (serous)	1
47.1	active	TLK1	Rucaparib	OCI-P5x (serous)	2
91.7	inactive	TLK1	Rucaparib	OCI-P5x (serous)	2
51.7	active	TLK1	Rucaparib	OCI-P5x (serous)	3
61	active	TLK1	Rucaparib	OCI-P5x (serous)	3
72.3	active	TLK1	Vehicle	OCI-C5x (clear cell)	1
58.6	active	TLK1	Vehicle	OCI-C5x (clear cell)	1
58.5	active	TLK1	Vehicle	OCI-C5x (clear cell)	2
73	active	TLK1	Vehicle	OCI-C5x (clear cell)	2
58.1	active	TLK1	Vehicle	OCI-C5x (clear cell)	3
56.7	active	TLK1	Vehicle	OCI-C5x (clear cell)	3
76.5	active	TLK1	Vehicle	OCI-P5x (serous)	1
81	inactive	TLK1	Vehicle	OCI-P5x (serous)	1
93.1	inactive	TLK1	Vehicle	OCI-P5x (serous)	2
91.1	inactive	TLK1	Vehicle	OCI-P5x (serous)	2
82.9	inactive	TLK1	Vehicle	OCI-P5x (serous)	3
80.6	inactive	TLK1	Vehicle	OCI-P5x (serous)	3
36.8	active	IL4	Rucaparib	OCI-C5x (clear cell)	1
44.6	active	IL4	Rucaparib	OCI-C5x (clear cell)	2
50.5	active	IL4	Rucaparib	OCI-C5x (clear cell)	3
60.6	active	IL4	Rucaparib	OCI-P5x (serous)	1
48	active	IL4	Rucaparib	OCI-P5x (serous)	2
51.4	active	IL4	Rucaparib	OCI-P5x (serous)	3
27.7	active	IL4	Vehicle	OCI-C5x (clear cell)	1
38.2	active	IL4	Vehicle	OCI-C5x (clear cell)	2
31.9	active	IL4	Vehicle	OCI-C5x (clear cell)	3
62.8	active	IL4	Vehicle	OCI-P5x (serous)	1
69.8	active	IL4	Vehicle	OCI-P5x (serous)	2
102	inactive	IL4	Vehicle	OCI-P5x (serous)	3
51.5	active	NLGN2	Rucaparib	OCI-C5x (clear cell)	1
43.6	active	NLGN2	Rucaparib	OCI-C5x (clear cell)	2
54.9	active	NLGN2	Rucaparib	OCI-C5x (clear cell)	3
51	active	NLGN2	Rucaparib	OCI-P5x (serous)	1
47.9	active	NLGN2	Rucaparib	OCI-P5x (serous)	2
46.7	active	NLGN2	Rucaparib	OCI-P5x (serous)	3
50.6	active	NLGN2	Vehicle	OCI-C5x (clear cell)	1
46.5	active	NLGN2	Vehicle	OCI-C5x (clear cell)	2
54.2	active	NLGN2	Vehicle	OCI-C5x (clear cell)	3
63.8	active	NLGN2	Vehicle	OCI-P5x (serous)	1
71.6	active	NLGN2	Vehicle	OCI-P5x (serous)	2
84.5	inactive	NLGN2	Vehicle	OCI-P5x (serous)	3
